# The campaign covered roughly 340,000 compounds. About 4,500 (1.3%) were called active. The shares of active, inactive and inconclusive entries below differ from those in the screen. Calls come from the whole dose curve; as a rule, active = well fitted inhibition curve with a large enough effect; inconclusive = small, poorly fitted or top-dose-only effect, or another doubt; inactive = no such curve, though single readings can be large or run the other way. Where the call is inconclusive, the potency comes from a doubtful curve fit.
# Target: DNA polymerase beta (Homo sapiens) (UniProt P06746)
# Test: qHTS Assay for Inhibitors of DNA Polymerase Beta
# Details: Pol beta primer extension/strand displacement, fluorescence kinetic; activity change, negative = inhibition: at 114 µM (top of the series)
# Outline: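 Values derive from four-parameter Hill fits of normalized kinetic data: reads at 0 and 10 min following addition of 50 nM substrate to 10 nM Pol beta preincubated 15 min with compound.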
# % is set by controls: 0 for no effect and ±100 for the full control effect; potency is the fitted concentration of half-maximal effect.
SMILES,Potency,"activity change, negative = inhibition"
O=c1c2c3c(sc2nnn1Cc1ccc(F)cc1)CCCC3,inactive,–
COc1ccc(CC(=O)NCCC(C)C)cc1S(=O)(=O)N1CCOCC1,"inconclusive: 89.1 µM [inhibitor, single point]",–
CCCc1nc(SCC(N)=O)[nH]c(=O)c1CC,"inconclusive: 79.4 µM [inhibitor, single point]",–
CC1(C)CC(=O)C2=C(C1)c1c(ccc3ccccc13)NC2c1cc([N+](=O)[O-])cc([N+](=O)[O-])c1O (stereo not drawn),active: 44.7 µM,–
Cc1ccc(S(=O)(=O)n2ccc3c(OCCOCCSCC(NC(=O)OC(C)(C)C)C(=O)O)cccc32)cc1 (stereo not drawn),active: 70.8 µM,–
N#Cc1ccc(/C=C\c2nccc3c2[nH]c2ccccc23)cc1,active: 17.8 µM,–
CN(C)NC(=S)Nc1cccc(Cl)c1,inactive,–
CCOC(=O)c1c(NC(=O)c2nn(C)cc2[N+](=O)[O-])sc(C)c1C,"inconclusive: 10 µM [inhibitor, full curve]",–
N#C/C(=C\c1ccc(N2CCCCC2)o1)C(=O)Nc1cccc(Br)c1,inactive,–
CCC(Sc1ncnc2sc3c(c12)CCCC3)C(=O)OCC(C)C (stereo not drawn),inactive,–
O=C(O)COc1ccccc1C1Nc2ccccc2-c2nnc(SCc3ccc(Cl)cc3)nc2O1 (stereo not drawn),active: 2.51 µM,–
O=C1/C(=C\c2ccccn2)SC(=S)N1c1ccc(S(=O)(=O)Nc2nccs2)cc1,–,inconclusive: -88.4% [inhibitor]
COc1ccc(N2C(=O)CC(n3cnc4ccccc43)C2=O)cc1 (stereo not drawn),"inconclusive: 0.158 µM [inhibitor, full curve, poor fit]",–
COc1ccc(S(=O)(=O)N2CCC(C(=O)N[C@H](C(=O)NCc3ccncc3)C(C)C)CC2)cc1,inactive,–
CCOc1ccc(S(=O)(=O)n2nnc3ccccc32)cc1C,"inconclusive: 0.316 µM [inhibitor, full curve]",–
CCCCCn1c(=O)c(C(=O)c2ccccc2)nc2ccccc21,inactive,–
O=C(COc1cc(Cl)ccc1Cl)Nc1ccc2c(c1)CCC2,"inconclusive: 0.794 µM [inhibitor, full curve, poor fit]",–
Cc1ccc(NC(=O)c2nc(C)n(-c3ccc([N+](=O)[O-])cc3)n2)cc1,"inconclusive: 28.2 µM [inhibitor, full curve]",–
Cc1ccccc1NC(=O)Cn1nnc(C(=O)NCc2cccs2)c1N,"inconclusive: 22.4 µM [inhibitor, full curve]",–
CCN=C(Nc1ccc2c(c1)OCO2)SC1CC(=O)N(c2ccccc2F)C1=O (stereo not drawn),"inconclusive: 39.8 µM [inhibitor, single point]",–
CCOC(=O)Cc1nnc(NC(=O)COc2ccc(OC)cc2)s1,"inconclusive: 25.1 µM [inhibitor, full curve, poor fit]",–
CC(CNC(=O)c1csc2c1CCCCC2)c1ccccc1 (stereo not drawn),inactive,–
COc1ccc(NC(=O)CN2C(=O)CSC(C)C2=O)cc1 (stereo not drawn),inactive,–
COc1ccc(NC(=O)NCCN2CCc3ccccc3C2)cc1,"inconclusive: 63.1 µM [inhibitor, single point]",–

SMILES,Potency,"activity change, negative = inhibition"
O=C(C1=C[C@H](c2ccccc2)C[C@H](OCc2ccc(CO)cc2)O1)N1CCN(Cc2ccccc2)CC1,"inconclusive: 89.1 µM [inhibitor, partial curve, poor fit]",–
NS(=O)(=O)c1ccc(NC(=S)NC2CCCCCC2)cc1,"inconclusive: 79.4 µM [inhibitor, single point]",–
COCCN(C(=O)COC(=O)/C=C/c1ccco1)c1c(N)n(Cc2ccccc2)c(=O)[nH]c1=O,active: 28.2 µM,–
O=C(Nc1cccc(F)c1)C1CCN(S(=O)(=O)c2ccc3[nH]c4c(c3c2)CCCCC4)CC1,inactive,–
CN(CC(=O)Nc1cccnc1)S(=O)(=O)c1cc(Cl)ccc1Cl,"inconclusive: 89.1 µM [inhibitor, single point]",–
CCn1c(-c2ccc3ncccc3c2)n[nH]c1=S,inactive,–
CCOC(=O)c1ccc(NC(=O)C2CC(=O)N(c3ccc(C(C)C)cc3)C2)cc1 (stereo not drawn),–,inconclusive: -35.9% [inhibitor]
COc1ccc(C(=O)Nc2ccc3oc(-c4ccc(OC)cc4)nc3c2)cc1,inactive,–
CCc1cccc(NC(c2nnc(-c3ccccc3)o2)c2ccc(F)cc2Cl)c1 (stereo not drawn),"inconclusive: 89.1 µM [inhibitor, single point]",–
O=C(CN(c1ccccc1)S(=O)(=O)c1ccccc1)N/N=C/c1ccc(OC2CSC2)cc1,inactive,–
O=C(Nc1ncc([N+](=O)[O-])s1)c1cccc([N+](=O)[O-])c1,inactive,–
N#CC(C#N)=C1C=CC=CN1/C(=C\c1ccco1)C(=O)c1ccc(Br)cc1,inactive,–
N#C/C(=C\c1cccc(Cl)c1)C(=O)c1ccccc1,"inconclusive: 0.708 µM [inhibitor, full curve, poor fit]",–
CC(=O)CS(=O)(=O)c1ccc(Oc2ccc(S(=O)(=O)CC(C)=O)cc2)cc1,active: 31.6 µM,–
CCCNC(=O)c1nnsc1S(=O)c1ccc(Cl)cc1 (stereo not drawn),inactive,–
O=C1C=CC(=O)N1c1ccc(OC(F)F)cc1,inactive,–
Cc1noc(Cn2c(=O)c3ccccc3n(CC(=O)Nc3ccc(Cl)cc3)c2=O)n1,inactive,–
COc1cccc(-n2c(-c3ccco3)nc3c(cnn3-c3ccc(C)cc3)c2=O)c1,"inconclusive: 89.1 µM [inhibitor, single point]",–
CCOc1ccc(NS(=O)(=O)c2ccc3[nH]cc(C(=O)NC4CCCC4)c(=O)c3c2)cc1,"inconclusive: 44.7 µM [inhibitor, partial curve]",–
O=C(CSc1nc(NS(=O)(=O)c2ccccc2)cc(=O)[nH]1)Nc1ccccc1Cl,–,inconclusive: -59.1% [inhibitor]
N#Cc1ccc(OC(=O)c2cnccn2)cc1,"inconclusive: 31.6 µM [inhibitor, full curve, poor fit]",–
Cc1c(=O)n(OCc2ccccn2)c2ccccc2[n+]1[O-],"inconclusive: 0.112 µM [inhibitor, full curve, poor fit]",–
COc1ccc(-c2ccc(SCC(=O)NC3CCCC3)nn2)cc1OC,"inconclusive: 39.8 µM [inhibitor, single point]",–

# Quoted at random: 2 records from the list, in no set order.
SMILES,Potency,"activity change, negative = inhibition"
Cc1noc(Cn2c(=O)c3ccccc3n(CC(=O)Nc3ccc(Cl)cc3)c2=O)n1,inactive,–
O=C1/C(=C\c2ccccn2)SC(=S)N1c1ccc(S(=O)(=O)Nc2nccs2)cc1,–,inconclusive: -88.4% [inhibitor]
